Literature values in patent US20240293397A1 (H. Lundbeck A/S, priority 2010, published 2024).
Where two headings read alike, the source gives them in different places. Some of these results come from one statement about several compounds together. For some of these results: At least one compound was matched to its structure with a doubt left. Some ranges recur; such a range may be that of the whole group of compounds.

Assays:
[1] = treatment with tricyclic antidepressants; cited from earlier work
[2] = patients in treatment with TCA's, cited from earlier work
[3] = printed conversion of lbs/month

SMILES | dose-dependent weight gain [1] | weight gain [2] | weight gain [2, 3]
CNCCCN1c2ccccc2CCc2ccccc21 [desimiprmine] | 0.57-1.37 kg/months |  | 
CN(C)CCC=C1c2ccccc2CCc2ccccc21 [amitriptyline] | 0.57-1.37 kg/months | 1.3-2.9 lbs/month | 0.58-1.31 kg/months
CN(C)CCCN1c2ccccc2CCc2ccccc21 [imipramine] | 0.57-1.37 kg/months | 1.3-2.9 lbs/month | 0.58-1.31 kg/months
